# Test results as given in publication PMC7819943, “Rice protein-binding microarrays: a tool to detect cis-acting elements near promoter regions in rice”.
# Protein sequences, listed by entry. Tags and fused reporters are not part of them.
# UniProt Q0JBA9, entry or part of it: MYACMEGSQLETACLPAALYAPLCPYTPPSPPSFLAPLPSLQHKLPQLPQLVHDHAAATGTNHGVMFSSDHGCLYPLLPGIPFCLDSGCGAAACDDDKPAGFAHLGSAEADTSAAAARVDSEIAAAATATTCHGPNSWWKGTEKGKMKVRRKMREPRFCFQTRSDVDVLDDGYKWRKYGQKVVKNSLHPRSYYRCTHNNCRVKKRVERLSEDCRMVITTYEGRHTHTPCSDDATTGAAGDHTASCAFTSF
# This is one part of the list.
# Molecular target: OsWRKY34 (Oryza sativa, UniProt Q0JBA9 1-250)
# Test: protein-binding microarray (RPBM); PBS, 2% BSA, 51.3 ng/ul salmon testes DNA, 50 uM zinc acetate, 200 nM TF, 25 C, 1 h; high values mean tight binding
# Settings: protein: recombinant; tags: N-terminal polyhistidine and DsRed monomer fusion (pET32a); label: CyDye5-dUTP incorporated in the synthesized complementary strand; 3' TTTTT single-stranded linker to array surface; dsDNA, one strand shown
# Method in brief: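 Binding signal is defined as the fluorescence intensity of each feature in arbitrary units, read on an Axon 4000B scanner. Transcription factors with N-terminal polyhistidine and DsRed fusions came from E. coli BL21-CodonPlus and were purified on Ni–NTA. They were incubated at 200 nM for 1 h at 25 °C on a custom Agilent array that had been made double-stranded with Cy5-dUTP, with 50 µM zinc acetate present, and the array was washed.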
row,Sequence,binding signal
1,TTCTTACTCAGGTTTCCTAACTTATCTCTCTCGTTTTCCACGGAGTCACCTAGTGCAG,8340 fluorescence intensity (a.u.)
2,GCAACCCACACCTTCTAGGCTTCCACATATTTTCGGAAGTCGGAGTCACCTAGTGCAG,9220 fluorescence intensity (a.u.)
3,GCGCATTGGGGCGGGAAGGACGAGGAGGAGGTGGTGGCCGCGGAGTCACCTAGTGCAG,8130 fluorescence intensity (a.u.)
4,CGTCATTCGTCCTCCTCCACCATCCCTACTTTCCTAATGACGGAGTCACCTAGTGCAG,8770 fluorescence intensity (a.u.)
5,TCTTTTGTTGTCACACGCAGATTCAATTTATTTTCAATTTCGGAGTCACCTAGTGCAG,8670 fluorescence intensity (a.u.)
6,ATTATACGTTAATGGCTTTCTCGTTTTGTATACGCTGATTCGGAGTCACCTAGTGCAG,9600 fluorescence intensity (a.u.)
7,GTGTTTTTTGTGTGTGTGTGTTATGGTATGGTCAGTTCCTCGGAGTCACCTAGTGCAG,9240 fluorescence intensity (a.u.)
8,CGCCATTGCCGTCGCCGTCGGGCTCAGTCTCAGTCATTGCCGGAGTCACCTAGTGCAG,8510 fluorescence intensity (a.u.)
9,GTATGTGTGGAGGAGGGGTATAGAATCTGTATTGGCTAACCGGAGTCACCTAGTGCAG,8780 fluorescence intensity (a.u.)
10,GATTTGGACTTGTGTAGTTGTGTTGAGTGAAATCTTCCATCGGAGTCACCTAGTGCAG,8100 fluorescence intensity (a.u.)
11,GGTAGTTTAAAGTCTGTGTGCAAATACATTTTGTTAAATTCGGAGTCACCTAGTGCAG,8280 fluorescence intensity (a.u.)
12,ACGGTAATGCTATCCAACCAATCAACATTTAGTTCCCATACGGAGTCACCTAGTGCAG,8290 fluorescence intensity (a.u.)
13,TAAAAATATGTTTTTTTCTCGTGTTGTGTCGGGTGGTATGCGGAGTCACCTAGTGCAG,10600 fluorescence intensity (a.u.)
14,TCGAGAAGGACGTCGTTGTCGCGCGCCTCACCTTTGCCGACGGAGTCACCTAGTGCAG,9290 fluorescence intensity (a.u.)
15,TGCATTATCGGCTGTGTTTAGTTCAGCGCAAAGTTTGGATCGGAGTCACCTAGTGCAG,8060 fluorescence intensity (a.u.)
16,ACAACCATTCTCTTCGTCTACTTTCTCTTCTCCACCAATCCGGAGTCACCTAGTGCAG,10500 fluorescence intensity (a.u.)
17,GCCAGCAAGGCAGCAACATATCCTTGCATTTTCCTCCTCACGGAGTCACCTAGTGCAG,8510 fluorescence intensity (a.u.)
18,GCTCCGCCTGCCAGATCCATATGAGCCACCTGCGCCGCTACGGAGTCACCTAGTGCAG,8720 fluorescence intensity (a.u.)
19,CTTCTTCGTCTCATCCAACCCAAGTACCCAACCCGCGTCGCGGAGTCACCTAGTGCAG,10300 fluorescence intensity (a.u.)
20,GTGTGGTCCAGTTCGTTCCCTGCAGATCCATGGCCGCGCCCGGAGTCACCTAGTGCAG,8550 fluorescence intensity (a.u.)
21,ACTTGAAGCAATTTGACTTTGACTAAAGTCAAAAAACGTCCGGAGTCACCTAGTGCAG,10300 fluorescence intensity (a.u.)
22,GGCAGTGGAGTGGGGTGGCGTTATGCTGTGTCACGTGGAACGGAGTCACCTAGTGCAG,8300 fluorescence intensity (a.u.)
23,CCGTCGCCATAGCCGGACTCCGCGTGAGTTCTCCTCCCCGCGGAGTCACCTAGTGCAG,8250 fluorescence intensity (a.u.)

# A run of entries of the results above, as a working copy:
row,Sequence,binding signal
13,TAAAAATATGTTTTTTTCTCGTGTTGTGTCGGGTGGTATGCGGAGTCACCTAGTGCAG,10600 fluorescence intensity (a.u.)
14,TCGAGAAGGACGTCGTTGTCGCGCGCCTCACCTTTGCCGACGGAGTCACCTAGTGCAG,9290 fluorescence intensity (a.u.)
